These are yes or no findings as the source states them, for the method shown. Some binding calls cover weakened binding; strength is not graded here.
What was measured:
[1] = target: T1, Recombinant human IKKβ, full-length (human) (UniProt O14920); experiment: far-Western, overlay or dot blot; blot overlay: kinase (bait, 50-200 ng by the legend) spotted on nitrocellulose, blocked with 2% non-fat milk in PBST, overlaid with 100 ng full-length IRF5 for 1 h at RT, detected with an anti-IRF5 antibody; both purified
T1 sequence: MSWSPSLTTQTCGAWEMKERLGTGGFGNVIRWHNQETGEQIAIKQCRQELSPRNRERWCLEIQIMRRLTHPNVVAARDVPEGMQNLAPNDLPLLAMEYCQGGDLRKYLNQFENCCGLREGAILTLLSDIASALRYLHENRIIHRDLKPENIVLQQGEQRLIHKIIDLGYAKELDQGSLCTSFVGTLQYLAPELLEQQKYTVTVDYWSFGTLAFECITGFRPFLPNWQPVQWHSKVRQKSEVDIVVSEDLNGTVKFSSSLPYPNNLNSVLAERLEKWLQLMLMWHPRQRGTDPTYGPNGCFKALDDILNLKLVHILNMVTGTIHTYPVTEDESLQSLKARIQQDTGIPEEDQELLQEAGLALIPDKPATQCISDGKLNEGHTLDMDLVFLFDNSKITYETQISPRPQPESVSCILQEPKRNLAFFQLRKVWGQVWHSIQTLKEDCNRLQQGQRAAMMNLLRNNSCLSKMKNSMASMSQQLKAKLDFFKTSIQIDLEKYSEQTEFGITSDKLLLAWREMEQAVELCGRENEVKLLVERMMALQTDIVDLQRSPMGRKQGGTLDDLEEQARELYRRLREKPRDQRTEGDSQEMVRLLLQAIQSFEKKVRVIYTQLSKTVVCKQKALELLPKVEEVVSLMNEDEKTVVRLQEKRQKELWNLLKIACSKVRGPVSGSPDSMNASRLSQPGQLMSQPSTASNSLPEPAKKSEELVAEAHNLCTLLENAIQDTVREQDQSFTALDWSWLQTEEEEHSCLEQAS

By UniProt entry, the sequences of proteins in these tests, tags left out.
UniProt P07948: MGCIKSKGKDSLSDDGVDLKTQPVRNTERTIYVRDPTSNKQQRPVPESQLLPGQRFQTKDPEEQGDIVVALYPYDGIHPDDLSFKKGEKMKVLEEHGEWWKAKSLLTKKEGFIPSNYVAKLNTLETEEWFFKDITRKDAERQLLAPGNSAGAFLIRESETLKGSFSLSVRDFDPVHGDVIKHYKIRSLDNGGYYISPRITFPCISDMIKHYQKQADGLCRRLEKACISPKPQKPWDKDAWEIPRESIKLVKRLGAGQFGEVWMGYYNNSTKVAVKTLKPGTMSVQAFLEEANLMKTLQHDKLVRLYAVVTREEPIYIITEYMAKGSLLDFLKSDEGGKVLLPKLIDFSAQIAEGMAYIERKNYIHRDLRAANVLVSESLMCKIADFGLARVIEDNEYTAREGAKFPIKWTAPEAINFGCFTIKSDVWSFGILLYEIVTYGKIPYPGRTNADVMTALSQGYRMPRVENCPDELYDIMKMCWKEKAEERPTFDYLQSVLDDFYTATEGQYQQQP
UniProt Q13568: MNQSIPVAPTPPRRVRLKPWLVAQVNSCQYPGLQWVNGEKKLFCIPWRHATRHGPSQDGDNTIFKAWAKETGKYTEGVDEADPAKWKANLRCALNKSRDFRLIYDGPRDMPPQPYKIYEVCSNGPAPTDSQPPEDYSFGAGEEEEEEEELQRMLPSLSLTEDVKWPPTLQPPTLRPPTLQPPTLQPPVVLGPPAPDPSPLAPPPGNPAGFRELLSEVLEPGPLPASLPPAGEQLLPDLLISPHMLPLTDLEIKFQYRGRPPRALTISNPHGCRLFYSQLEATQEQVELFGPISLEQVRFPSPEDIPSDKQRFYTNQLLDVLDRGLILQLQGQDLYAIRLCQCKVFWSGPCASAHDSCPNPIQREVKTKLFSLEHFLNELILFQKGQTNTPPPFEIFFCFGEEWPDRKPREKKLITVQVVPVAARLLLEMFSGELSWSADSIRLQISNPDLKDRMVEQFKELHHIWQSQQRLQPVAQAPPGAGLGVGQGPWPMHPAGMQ

[2] = target: Recombinant human Lyn, full-length (human) (UniProt P07948); experiment: as above

binding [1]: binds
binding [2]: binds
Substance: Recombinant human IRF5 (interferon regulatory factor 5), full-length (from UniProt Q13568 1-498)
